Measured data: PubChem BioAssay AID743121 (NCATS, 2013)
The whole screen tested about 26,000 reagents; below is a part drawn at random. 167 of them (0.63%) count as active. 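Calls are per gene from RSA p-values that are not deposited; an individual active-marked siRNA can sensitise only weakly.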 Reagents against one gene are numbered here. Further read-outs or replicates are left out here.

Purpose: 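Genes whose silencing strengthens cell killing by camptothecin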 (primary screen)
System: MDA-MB-231 cells, a human breast cancer line
Reagents: single siRNA against human genes, 20 nM siRNA (0.8 pmol per well)
Duration: 120 h (drug added 48 h after transfection, read 72 h later)
Conditions: camptothecin 20 nM (about EC30) for 72 h; vehicle 0.1% DMSO in parallel plates
Measured: 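Cell viability by ATP luminescence (CellTiter-Glo) as % of non-targeting siRNA wells, and the log2 ratio of viability without drug over viability with camptothecin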
Reading the numbers: log2 vehicle/camptothecin viability: higher = stronger sensitisation to camptothecin; viability with camptothecin: higher = more viable cells
Hit rule: 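Active genes have an RSA gene-level p-value below 0.001, computed from the ratios of their separate siRNAs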

target | reagent | log2 vehicle/camptothecin viability | viability with camptothecin (% of control) | outcome
S1PR4 | 1 | -0.467 | 90.1 | inactive
S1PR4 | 2 | -0.379 | 5.34 | inactive
S1PR4 | 3 | 0.623 | 56.9 | inactive
S1PR4 | 4 | -0.176 | 85 | inactive
F13A1 | 1 | -0.203 | 109 | inactive
F13A1 | 2 | 0.0231 | 28.9 | inactive
F13A1 | 3 | -0.51 | 44.5 | inactive
F13A1 | 4 | -0.511 | 110 | inactive
KCNK3 | 1 | -0.124 | 77.1 | inactive
KCNK3 | 2 | -0.401 | 95 | inactive
KCNK3 | 3 | 0.148 | 66.5 | inactive
KCNK3 | 4 | -0.0269 | 92.1 | inactive
ADAM9 | 1 | 0.0455 | 74.1 | inactive
ADAM9 | 2 | -0.397 | 96.8 | inactive
ADAM9 | 3 | -0.0478 | 86.5 | inactive
COL7A1 | 1 | -0.166 | 80.6 | inactive
COL7A1 | 2 | -0.0161 | 58.7 | inactive
COL7A1 | 3 | 0.00108 | 79.3 | inactive
PDE4D | 1 | -0.455 | 110 | inactive
PDE4D | 2 | -0.0638 | 80.8 | inactive
PDE4D | 3 | -0.0106 | 87.1 | inactive
PDE4D | 4 | -0.479 | 111 | inactive
CITED2 | 1 | -0.00468 | 16.8 | inactive
CITED2 | 2 | -0.534 | 55.3 | inactive
CITED2 | 3 | 0.24 | 68.8 | inactive
CITED2 | 4 | -0.0653 | 79.6 | inactive
KIF1B | 1 | -0.237 | 81.5 | inactive
KIF1B | 2 | -0.212 | 72.7 | inactive
KIF1B | 3 | -0.114 | 90.2 | inactive
KIF1B | 4 | -0.177 | 114 | inactive
MAPKAPK5-AS1 | 1 | 0.0371 | 87.2 | inactive
MAPKAPK5-AS1 | 2 | -0.014 | 117 | inactive
MAPKAPK5-AS1 | 3 | -0.0257 | 51.2 | inactive
MAPKAPK5-AS1 | 4 | 0.182 | 69.2 | inactive
RRAS | 1 | 0.179 | 79.2 | inactive
RRAS | 2 | -0.165 | 85.5 | inactive
RRAS | 3 | -0.681 | 52.4 | inactive
RRAS | 4 | -0.488 | 23.5 | inactive
MORN2 | 1 | -0.348 | 70 | inactive
MORN2 | 2 | -0.186 | 34.4 | inactive
MORN2 | 3 | 0.154 | 93.7 | inactive
MORN2 | 4 | 0.00938 | 76.1 | inactive
OR7C2 | 1 | 0.58 | 43.4 | active
OR7C2 | 2 | 1.64 | 17.2 | active
OR7C2 | 3 | 0.157 | 83 | active
OR7C2 | 4 | 0.163 | 99.1 | active
NGF | 1 | 0.0666 | 99.3 | inactive
NGF | 2 | 0.243 | 93.6 | inactive
NGF | 3 | -0.162 | 70.7 | inactive
NGF | 4 | 0.114 | 79.8 | inactive
KLK5 | 1 | -0.46 | 43.7 | inactive
KLK5 | 2 | 0.806 | 22.6 | inactive
KLK5 | 3 | -0.271 | 66.7 | inactive
KLK5 | 4 | 0.00588 | 65.9 | inactive
CHEK2 | 1 | -0.0529 | 103 | inactive
CHEK2 | 2 | -0.147 | 65 | inactive
CHEK2 | 3 | -0.0612 | 61.3 | inactive
CHEK2 | 4 | 0.0994 | 105 | inactive
L1CAM | 1 | 0.101 | 84.8 | inactive
L1CAM | 2 | -0.341 | 69.6 | inactive
L1CAM | 3 | -0.067 | 92.6 | inactive
L1CAM | 4 | -0.465 | 1.85 | inactive
VDR | 1 | -0.463 | 43.8 | inactive
VDR | 2 | -0.565 | 57.4 | inactive
VDR | 3 | -0.256 | 87.8 | inactive
VDR | 4 | 0.175 | 71.3 | inactive
NRIP1 | 1 | -0.413 | 90 | inactive
NRIP1 | 2 | -0.17 | 114 | inactive
NRIP1 | 3 | 0.127 | 83.5 | inactive
NRIP1 | 4 | -0.103 | 105 | inactive
CD244 | 1 | -0.544 | 14.6 | inactive
CD244 | 2 | 0.32 | 41.4 | inactive
CD244 | 3 | -0.467 | 122 | inactive
GATM | 1 | -0.0544 | 102 | inactive
GATM | 2 | 0.326 | 67.2 | inactive
GATM | 3 | -0.174 | 81.9 | inactive
FN3KRP | 1 | -0.221 | 83.6 | inactive
FN3KRP | 2 | 0.635 | 20.8 | inactive
FN3KRP | 3 | -0.139 | 21.9 | inactive
FN3KRP | 4 | -0.603 | 80.2 | inactive
PAM | 1 | -0.367 | 88.5 | inactive
PAM | 2 | -0.192 | 71 | inactive
PAM | 3 | 0.0791 | 113 | inactive
PAM | 4 | -0.0472 | 82.8 | inactive
PHF14 | 1 | -0.336 | 64.8 | inactive
PHF14 | 2 | 0.678 | 27.1 | inactive
PHF14 | 3 | -0.214 | 94 | inactive
PHF14 | 4 | -0.168 | 110 | inactive

14 entries already listed, ordered by “viability with camptothecin (% of control)”, high to low.
target | reagent | log2 vehicle/camptothecin viability | viability with camptothecin (% of control) | outcome
MAPKAPK5-AS1 | 2 | -0.014 | 117 | inactive
KIF1B | 4 | -0.177 | 114 | inactive
PDE4D | 4 | -0.479 | 111 | inactive
KIF1B | 3 | -0.114 | 90.2 | inactive
MAPKAPK5-AS1 | 1 | 0.0371 | 87.2 | inactive
PDE4D | 3 | -0.0106 | 87.1 | inactive
KIF1B | 1 | -0.237 | 81.5 | inactive
CITED2 | 4 | -0.0653 | 79.6 | inactive
KIF1B | 2 | -0.212 | 72.7 | inactive
MAPKAPK5-AS1 | 4 | 0.182 | 69.2 | inactive
CITED2 | 3 | 0.24 | 68.8 | inactive
CITED2 | 2 | -0.534 | 55.3 | inactive
MAPKAPK5-AS1 | 3 | -0.0257 | 51.2 | inactive
CITED2 | 1 | -0.00468 | 16.8 | inactive
